From PubChem BioAssay AID1347076 (National Center for Advancing Translational Sciences (NCATS), 2019)
Hit rate of the full screen: of about 400,000 compounds, about 13,000 (3.2%) were called active. This list was built around the results that the source calls inconclusive (neither active nor inactive); the mix of calls is not that of the screen. Calls follow the shape of the dose curve; as a rule, active = well fitted cell-killing curve with a large enough effect; inconclusive = small, poorly fitted or top-dose-only effect, or effect the other way; inactive = flat fitted curve, though single readings scatter. Potencies of inconclusive entries are doubtful fits and often do not repeat.

Experiment: qHTS assay for MDR1-selective chemotherapeutics: Primary screen using the drug-selected MDR subline cells KB-V1; also: nearly all actives have a fitted effect of over 60% in size
Conditions: KB-V1 MDR cells viability, CellTiter-Glo, 72 h; activity change, negative = cytotoxicity: at 46.1 µM (top of the series)
Procedure, shortened: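 Following 72 h at 37 degrees C with compound, KB-V1 cell viability was read by CellTiter-Glo luminescence, medium being phenol-red-free DMEM plus 10% FBS; concentration-response parameters came from normalized, curve-fitted qHTS data.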
% is scaled to controls: 0 for no effect and ±100 for the full control effect; potency is read from the fitted curve at half-maximal effect.

| SMILES | Potency | activity change, negative = cytotoxicity |
| --- | --- | --- |
| O=C(NC(CO)Cc1ccccc1)c1ccccc1 (stereo not drawn) | inconclusive: 16.4 µM [rising, single point] |  |
| Cn1cccc1Cc1nnc(SCC(=O)NC2CCCCC2)n1CCc1ccccc1 |  | inactive: -9.61% |
| COc1cccc(Cn2cnc3c(NS(=O)(=O)c4ccc(Cl)cc4Cl)c(C)c(C)cc32)c1 | inconclusive: 14.6 µM [cytotoxic, partial curve] |  |
| O=C(CCn1nc(-c2ccccc2)c2ccccc2c1=O)Nc1ccccc1 |  | inactive: -24.8% |
| COCCn1c(-c2ccccc2)csc1=Nc1cccnc1 | inconclusive: 29.1 µM [cytotoxic, single point] |  |
| Cc1ccccc1-c1cc(C(=O)NCc2cccs2)n(CC2CC(c3cccnc3)=NO2)n1 (stereo not drawn) | inconclusive: 32.6 µM [cytotoxic, single point] |  |
| COc1ccc(C(NC(=O)C2CCN(CCOc3ccc(Cl)cc3Cl)CC2)c2ccccc2C)cn1 (stereo not drawn) | inconclusive: 29.1 µM [cytotoxic, single point] |  |
| COC(=O)C1=C(C(=O)OC)C(c2cc([N+](=O)[O-])ccc2O)c2sc(=O)[nH]c2S1 (stereo not drawn) | inconclusive: 18.4 µM [rising, single point] |  |
| CN1/C(=C\C(=S)NC(=O)c2cccc(Br)c2)C(C)(C)c2ccccc21 | active: 8.2 µM |  |
| O=C(NC(=S)Nc1ccc(S(=O)(=O)N2CCCC2)cc1)C1CC1 | inconclusive: 29.1 µM [cytotoxic, single point] |  |
| Cc1ccc(OCC(=O)N/N=C2/SCC(=O)N2Cc2ccccc2)cc1 | inconclusive: 23.1 µM [cytotoxic, partial curve, poor fit] |  |
| CCOC(=O)c1cnc2cc(F)c(F)cc2c1N1CCOCC1 | inconclusive: 20.6 µM [cytotoxic, single point] |  |
| COc1ccc(N(CC(=O)NCCc2ccc(S(N)(=O)=O)cc2)S(=O)(=O)c2c(C)noc2C)cc1 | inconclusive: 18.4 µM [rising, single point] |  |
| CS(=O)(=O)N1CCN(c2ccccc2NC(=O)c2cccc3ccccc23)CC1 |  | inactive: 0.962% |
| O=C(Nc1ccccc1)N1CCCC(c2nc(-c3ccc(F)cc3)no2)C1 (stereo not drawn) | inconclusive: 29.1 µM [cytotoxic, single point] |  |
| CCCCCc1c(-c2cccc(Br)c2)ncn1CCc1ccccc1OC | active: 11.6 µM |  |
| Cc1ccc(CN(C(=O)c2cc3ccccc3oc2=O)C2CCS(=O)(=O)C2)cc1 (stereo not drawn) | active: 14.6 µM |  |
| CSc1nnc(-c2ccccc2)c(-c2ccccc2)n1 | inconclusive: 29.1 µM [cytotoxic, single point] |  |
| COCCCNC1=C(Cl)C(=O)c2ccccc2C1=O | inconclusive: 32.6 µM [cytotoxic, partial curve, poor fit] |  |
| COc1ccc(NC(=O)c2ccco2)cc1NC(=O)COc1cccc(C)c1C |  | inactive: -4.1% |
| O=C(NC(=S)Nc1ccc(N2CCCCC2)c(Cl)c1)c1cccs1 | inconclusive: 20.6 µM [cytotoxic, single point] |  |
| CCOC(=O)C1CCN(c2ncnc3c2oc2ccc(Br)cc23)CC1 | active: 20.6 µM |  |
| COc1ccc(C)cc1NC(=O)COc1cc(=O)n(C)c2ccccc12 | inconclusive: 20.6 µM [rising, partial curve, poor fit] |  |

In another format: results already given.
SMILES | Potency | activity change, negative = cytotoxicity
O=C(CCn1nc(-c2ccccc2)c2ccccc2c1=O)Nc1ccccc1 |  | inactive: -24.8%
COC(=O)C1=C(C(=O)OC)C(c2cc([N+](=O)[O-])ccc2O)c2sc(=O)[nH]c2S1 (stereo not drawn) | inconclusive: 18.4 µM [rising, single point] | 
COc1ccc(N(CC(=O)NCCc2ccc(S(N)(=O)=O)cc2)S(=O)(=O)c2c(C)noc2C)cc1 | inconclusive: 18.4 µM [rising, single point] | 
COc1ccc(NC(=O)c2ccco2)cc1NC(=O)COc1cccc(C)c1C |  | inactive: -4.1%

Carrying on:

| SMILES | Potency | activity change, negative = cytotoxicity |
| --- | --- | --- |
| Cc1nn(Cc2cccc(C(=O)Nc3ccn(Cc4c(F)c(F)cc(F)c4F)n3)c2)c(C)c1[N+](=O)[O-] | inconclusive: 23.1 µM [cytotoxic, partial curve, poor fit] |  |
| CC(=O)Nc1cc(-c2cccc(C)c2)cn2c(-c3ccc(S(C)(=O)=O)cc3)cnc12 | inconclusive: 23.1 µM [cytotoxic, single point] |  |
| Cc1nc2ccc(NC(=O)c3ccc(Cl)c(NC(=O)c4cccs4)c3)cc2s1 | active: 23.1 µM |  |
| CC1CN(C(=O)c2cc(S(=O)(=O)N3CCN(c4ccccc4)CC3)ccc2Cl)CC(C)O1 (stereo not drawn) | inconclusive: 6.51 µM [cytotoxic, partial curve] |  |
| CCSc1nnc(NC(=O)c2c(-c3ccccc3Cl)noc2C)s1 | inconclusive: 35.5 µM [cytotoxic, single point] |  |
| CC1CCCCC12NC(=O)N(CC(=O)Nc1ccccc1F)C2=O (stereo not drawn) | inconclusive: 25.9 µM [rising, single point] |  |
| COC(=O)CNC(=O)c1c(-c2c(Cl)cccc2Cl)noc1C |  | inactive: 3.12% |
| COc1cc(C(=O)Nc2nnc(C3=COCCO3)o2)cc(OC)c1OC | inconclusive: 29.1 µM [cytotoxic, single point] |  |
| Nc1n[nH]c(N)c1N=Nc1ccccc1F | inconclusive: 16.4 µM [rising, partial curve, poor fit] |  |
| CC(=O)c1cccc(OCc2cc(C(=O)N(C)CCc3cnn(C)c3)no2)c1 | inconclusive: 29.1 µM [cytotoxic, single point] |  |
| Cc1ccc(NC(=O)Cn2c(O)c(N=NC(=O)c3cc4ccccc4cc3O)c3ccccc32)cc1 | inconclusive: 16.4 µM [cytotoxic, single point] |  |
| Cc1ccnc2nc(C(=O)OCC(=O)N(Cc3ccccc3)C(C)C)nn12 | inconclusive: 29.1 µM [rising, single point] |  |
| O=C(COC(=O)CN1C(=O)C2CCCCC2C1=O)Nc1cc(F)ccc1F (stereo not drawn) |  | inactive: 4.72% |
| Cc1ccc(Cn2cnc3c(nnn3Cc3ccc(Cl)cc3)c2=O)cc1 |  | inactive: -3% |
| CCOC(=O)C1=C(COC(=O)Cc2ccc(Cl)cc2)NC(=O)NC1C (stereo not drawn) | inconclusive: 23.1 µM [rising, single point] |  |
| Cc1cc(C)cc(N=Cc2ccc([N+](=O)[O-])s2)c1 | inconclusive: 23.1 µM [cytotoxic, single point] |  |
| O=C(COc1ccccc1)Nc1ccccc1C(=O)NCc1ccco1 | inconclusive: 29.1 µM [cytotoxic, single point] |  |
| Cc1ccc2ccc(C(Nc3ccccc3)c3ccc(C(C)C)cc3)c(O)c2n1 (stereo not drawn) | inconclusive: 7.31 µM [cytotoxic, partial curve] |  |
| CCC(Sc1nccn1C)C(=O)Nc1ccc(Cl)cn1 (stereo not drawn) | inconclusive: 3.66 µM [rising, partial curve, poor fit] |  |
| C/C(=N\Nc1cccc([N+](=O)[O-])c1)c1ccccc1O | inconclusive: 29.1 µM [cytotoxic, single point] |  |
| Cc1cc2oc(=O)cc(CN3CCN(S(=O)(=O)c4cccs4)CC3)c2cc1C |  | inactive: -29.7% |
| COc1ccc(Cl)cc1C(=O)N(Cc1nc(-c2cccc(C)c2)no1)C(C)C | inconclusive: 25.9 µM [cytotoxic, single point] |  |
| COc1ccc(CN2CC[C@H]3C=CCc4cccc(c43)C2)cc1 |  | inactive: 6.41% |

| SMILES | Potency | activity change, negative = cytotoxicity |
| --- | --- | --- |
| CCN(Cc1ccccc1)C(=O)CN1C(=O)NC(CC)(c2ccc(F)cc2)C1=O (stereo not drawn) |  | inactive: -16.3% |
| CC(=O)c1cccc(-c2cnc3c(NC=O)cc(-c4ccc(F)cc4)cn23)c1 | inconclusive: 29.1 µM [cytotoxic, single point] |  |
| COc1ccc(NC(=O)c2nc(C)c(C3(C)CC(c4ccccc4)=NO3)s2)cc1 (stereo not drawn) | inconclusive: 3.66 µM [cytotoxic, full curve] |  |
| COC(=O)c1ccc(NC(=O)Nc2ccccc2C)cc1 | inconclusive: 29.1 µM [cytotoxic, single point] |  |
| Cc1ccc(C)c(NC(=O)COC(=O)c2cccc3c2C(=O)c2ccccc2C3=O)c1 | active: 14.6 µM |  |
| COC(=O)c1nnn(-c2cccc(C)c2)c1N |  | inactive: -0.341% |
| COc1ccc(CCC(=O)O)c(O)c1 | inconclusive: 4.11 µM [cytotoxic, full curve] |  |
| CC(=O)Nc1ccc(-c2cc(C(=O)O)c3ccc(C)cc3n2)cc1 |  | inactive: 0% |
| O=C(CN(Cc1ccccc1Cl)C(=O)CCC(=O)Nc1nccs1)NCC1CCCO1 (stereo not drawn) | inconclusive: 20.6 µM [rising, single point] |  |
| CC(=O)c1cccc(N(CC(=O)NC2CCCCC2)C(=O)Cn2nnc(-c3ccccc3)n2)c1 |  | inactive: -15.2% |
| COc1ccc(CNc2nc(-c3ccccc3)nn2C(=O)c2cccs2)cc1 | inconclusive: 20.6 µM [cytotoxic, single point] |  |
| O=C(NC(=S)Nc1ccc2oc(=O)ccc2c1)c1cccc(Cl)c1 |  | inactive: 3.53% |
| COc1ccc2cc3c(N)nn(C(=O)Cc4ccccc4OC)c3nc2c1 | inconclusive: 32.6 µM [cytotoxic, single point] |  |
| CCOC(=O)c1ccc(NC(=O)CN(Cc2ccc(C)cc2)S(=O)(=O)c2ccc(C)cc2)cc1 |  | inactive: -10% |
| CC(C)=CCC/C(C)=C/CNC(=O)C[C@H]1C[C@H](C(=O)N2CCOCC2)[C@@]2(CCC3CCCC3)c3[nH]c4cc(-c5ccco5)ccc4c3CCN2C1=O |  | inactive: 0% |
| COCCN(C(=O)COC(=O)CSc1ccc(Cl)cc1)c1c(N)n(Cc2ccccc2)c(=O)[nH]c1=O |  | inactive: 27.4% |
| O=[N+]([O-])c1cc(S(=O)(=O)N2CCOCC2)ccc1N1CCCC1 | inconclusive: 10.3 µM [cytotoxic, partial curve] |  |
| O=C(c1cc(C(=O)N2CCOCC2)c2nc3ccccc3n2c1)c1ccccc1O | inconclusive: 8.2 µM [cytotoxic, partial curve, poor fit] |  |
| CC#CCN1c2ccccc2[C@]23C[C@@H](C(=O)OC)N(C(=O)c4cc(C)oc4C)C2=NC(C(=O)OC)=C(C(=O)OC)[C@H]13 | inconclusive: 29.1 µM [cytotoxic, single point] |  |
| O=C(Nc1ccc(N2CCN(c3ncccc3C(F)(F)F)CC2)nc1)c1cccs1 | active: 18.4 µM |  |
| Cc1ccc(S(=O)(=O)N2CCN(C(=O)COC(=O)CSc3ccccc3)CC2)c(C)c1 |  | inactive: 15.4% |
| CCOc1ccc2[nH]c(=O)c(C(c3nnnn3CC3CCCO3)N3CCc4ccccc4C3)cc2c1 (stereo not drawn) | inconclusive: 11.6 µM [cytotoxic, partial curve] |  |
